{
  "source": "PubChem BioAssay AID248",
  "about": "(DTP/NCI, 2004)",
  "tested_on": "L1210 leukemia ip in BDF1 mice, survival T/C",
  "assay": "NCI In Vivo Anticancer Drug Screen. Data for tumor model L1210 Leukemia (intraperitoneal) in B6D2F1 (BDF1) mice",
  "details": "T/C endpoint: mean survival time, higher T/C = longer survival",
  "key": {"[1]": {"details": "dose: 400.0 mg/kg/injection, schedule: Q04DX002 (ip), vehicle: saline"}, "[2]": {"details": "dose: 100.0 mg/kg/injection, schedule: Q04DX002 (ip), vehicle: saline with Tween-80"}, "[3]": {"details": "dose: 400.0 mg/kg/injection, schedule: Q01DX009 (ip), vehicle: saline with Tween-80"}, "[4]": {"details": "dose: 400.0 mg/kg/injection, schedule: Q04DX003 (ip), vehicle: saline with Tween-80"}, "[5]": {"details": "dose: 100.0 mg/kg/injection, schedule: Q04DX003 (ip), vehicle: saline with Tween-80"}, "[6]": {"details": "dose: 200.0 mg/kg/injection, schedule: Q04DX003 (ip), vehicle: saline with Tween-80"}},
  "note": "The list does not hold the whole screen: it is rich in T/C values a quarter to a half above the control, in often repeated tests (any T/C) and in doses without a T/C. Other doses and runs of a compound stand elsewhere. T/C gives the treated animals as a percentage of the vehicle group. Some entries give survivors of the animals treated and no T/C: the source holds a T/C of zero for them, seemingly a mark for toxic or unscored doses. Some doses without a T/C left all or most animals alive at the check, yet need not have been tolerated: the source hardly ever lists a survival T/C far under the control, and the zero likely stands for such cases as well. Survivors were counted at the toxicity check, usually on the fifth day, unless a day is given; later deaths do not show. Schedule codes are those of the source, read here as Q, the interval in days (D) or hours (H), X, the number of doses. Where survival is the endpoint, the PubChem record calls one and a half times the control and up active, and a quarter to a half above the control has no call in these data; cut-offs in other NCI protocols can differ. Some entries hold several experiments; the values are given in rising order.",
  "data": [
    {"smiles": "COCP(=O)(O)O", "values": [
      {"measurement": "survivor count", "setting": "[1]", "result": "1 of 3"}
    ]},
    {"smiles": "CCOc1ccc(OCC)c(NC(=O)Nc2ccccc2Cl)c1", "values": [
      {"measurement": "survivor count", "setting": "[2]", "result": "3 of 3"}
    ]},
    {"smiles": "CCCCCCCCC1NC1CCCCCCCC", "note": "(centres undefined)", "values": [
      {"measurement": "survivor count", "setting": "[2]", "result": "3 of 3"},
      {"measurement": "survivor count", "setting": "dose: 200.0 mg/kg/injection, schedule: Q04DX002 (ip), vehicle: saline with Tween-80", "result": "1 of 3"},
      {"measurement": "survivor count", "setting": "dose: 400.0 mg/kg/injection, schedule: Q04DX002 (ip), vehicle: other", "result": "0 of 3"},
      {"measurement": "survivor count", "setting": "dose: 400.0 mg/kg/injection, schedule: Q04DX002 (ip), vehicle: saline with Tween-80", "result": "0 of 3"}
    ]},
    {"smiles": "CCCCCCCCCCN1CCC(N2CCCCC2)CC1", "values": [
      {"measurement": "survivor count", "setting": "dose: 200.0 mg/kg/injection, schedule: Q04DX002 (ip), vehicle: saline", "result": "0 of 3"},
      {"measurement": "survivor count", "setting": "[1]", "result": "0 of 3"}
    ]},
    {"smiles": "O=C(O)c1c(F)ccc([N+](=O)[O-])c1F", "values": [
      {"measurement": "survivor count", "setting": "[1]", "result": "2 of 3"}
    ]},
    {"smiles": "NC(=O)NC(=O)COc1ccc(Cl)cc1Cl", "values": [
      {"measurement": "survivor count", "setting": "dose: 400.0 mg/kg/injection, schedule: Q04DX002 (ip), vehicle: saline + alcohol", "result": "0 of 3"}
    ]},
    {"smiles": "CN1C2CCC1C(O)C(c1ccccc1)C2", "note": "(centres undefined)", "values": [
      {"measurement": "survivor count", "setting": "dose: 75.0 mg/kg/injection, schedule: Q01DX001 (ip), vehicle: acetone", "result": "1 of 6"},
      {"measurement": "survivor count", "setting": "dose: 150.0 mg/kg/injection, schedule: Q01DX001 (ip), vehicle: acetone", "result": "0 of 6"},
      {"measurement": "survivor count", "setting": "dose: 300.0 mg/kg/injection, schedule: Q01DX001 (ip), vehicle: acetone", "result": "0 of 6"}
    ]},
    {"smiles": "O=Cc1cc(O)ccc1[N+](=O)[O-]", "values": [
      {"measurement": "survivor count", "setting": "[3]", "result": "0 of 6"}
    ]},
    {"smiles": "CC1=CC(=N/S(=O)(=O)c2ccccc2)/C2CC(C)=C(C)CC2/C1=N\\S(=O)(=O)c1ccccc1", "note": "(centres undefined)", "values": [
      {"measurement": "survivor count", "setting": "dose: 400.0 mg/kg/injection, schedule: Q04DX003 (ip), vehicle: Klucel (hydroxypropylcellulose) (HPC)", "result": "6 of 6"}
    ]},
    {"smiles": "Cc1ccc(S(=O)(=O)c2ccc(S(=O)(=O)c3ccccc3)cc2)cc1", "values": [
      {"measurement": "survivor count", "setting": "dose: 200.0 mg/kg/injection, schedule: Q01DX001 (ip), vehicle: saline", "result": "6 of 6"}
    ]},
    {"smiles": "N=C(N)c1ccc(-n2nc3ccc(C(=N)N)cc3n2)cc1", "values": [
      {"measurement": "survivor count", "setting": "dose: 100.0 mg/kg/injection, schedule: Q04DX003 (ip), vehicle: saline", "result": "0 of 4"},
      {"measurement": "survivor count", "setting": "dose: 200.0 mg/kg/injection, schedule: Q04DX003 (ip), vehicle: saline", "result": "0 of 4"},
      {"measurement": "survivor count", "setting": "dose: 400.0 mg/kg/injection, schedule: Q04DX003 (ip), vehicle: saline", "result": "0 of 4"}
    ]},
    {"smiles": "CCCCCCCC[n+]1cccc(C(N)=O)c1", "values": [
      {"measurement": "survivor count", "setting": "[4]", "result": "0 of 6"}
    ]},
    {"smiles": "Cc1cc(N(C)C)cc(C)c1N=Nc1cc[n+]([O-])cc1", "values": [
      {"measurement": "survivor count", "setting": "[5]", "result": "6 of 6"},
      {"measurement": "survivor count", "setting": "[6]", "result": "1 of 6"},
      {"measurement": "survivor count", "setting": "[3]", "result": "0 of 6"},
      {"measurement": "survivor count", "setting": "[4]", "result": "0 of 6"}
    ]},
    {"smiles": "CC(C)CNCc1ccc([N+](=O)[O-])cc1", "values": [
      {"measurement": "survivor count", "setting": "dose: 300.0 mg/kg/injection, schedule: Q01DX001 (ip), vehicle: carboxymethylcellulose (CMC)", "result": "1 of 6"}
    ]},
    {"smiles": "CC(C)OP(=O)(CP(=O)(OC(C)C)OC(C)C)OC(C)C", "values": [
      {"measurement": "survivor count", "setting": "dose: 400.0 mg/kg/injection, schedule: Q01DX009 (ip), vehicle: saline", "result": "5 of 6"}
    ]},
    {"smiles": "O[C@@H]1CCC[C@H]1n1cnc2c(=S)nc[nH]c21", "values": [
      {"measurement": "T/C", "setting": "[5]", "result": "129 % of control"},
      {"measurement": "T/C", "setting": "[6]", "result": "138 and 141 % of control"},
      {"measurement": "T/C", "setting": "dose: 300.0 mg/kg/injection, schedule: Q04DX003 (ip), vehicle: saline with Tween-80", "result": "141 % of control"},
      {"measurement": "T/C", "setting": "[4]", "result": "130 % of control"}
    ]},
    {"smiles": "COc1c(O)cc2c(c1OC)-c1ccc(OC)c(=O)cc1C(NC=O)CC2", "note": "(centres undefined)", "values": [
      {"measurement": "survivor count", "setting": "[4]", "result": "1 of 6"}
    ]},
    {"smiles": "OC1COC(OCc2ccccc2)C(O)C1O", "note": "(centres undefined)", "values": [
      {"measurement": "survivor count", "setting": "[4]", "result": "6 of 6"}
    ]},
    {"smiles": "CSC(=N)c1cccc(OCc2ccccc2)c1", "values": [
      {"measurement": "survivor count", "setting": "dose: 400.0 mg/kg/injection, schedule: Q01DX009 (ip), vehicle: Klucel (hydroxypropylcellulose) (HPC)", "result": "0 of 6"}
    ]},
    {"smiles": "O=S(=O)(Oc1ccc(Cl)cc1)c1ccc(Cl)cc1", "values": [
      {"measurement": "survivor count", "setting": "dose: 200.0 mg/kg/injection, schedule: Q01DX009 (ip), vehicle: saline", "result": "6 of 6"}
    ]}
  ]
}
